In article doi:10.1101/2021.04.13.439655 one finds binding data, which are given here for 1 molecule.

Assay [1] deals with T1, full-length Smad4 protein (Smad4FL), Q13485.
T1 chain: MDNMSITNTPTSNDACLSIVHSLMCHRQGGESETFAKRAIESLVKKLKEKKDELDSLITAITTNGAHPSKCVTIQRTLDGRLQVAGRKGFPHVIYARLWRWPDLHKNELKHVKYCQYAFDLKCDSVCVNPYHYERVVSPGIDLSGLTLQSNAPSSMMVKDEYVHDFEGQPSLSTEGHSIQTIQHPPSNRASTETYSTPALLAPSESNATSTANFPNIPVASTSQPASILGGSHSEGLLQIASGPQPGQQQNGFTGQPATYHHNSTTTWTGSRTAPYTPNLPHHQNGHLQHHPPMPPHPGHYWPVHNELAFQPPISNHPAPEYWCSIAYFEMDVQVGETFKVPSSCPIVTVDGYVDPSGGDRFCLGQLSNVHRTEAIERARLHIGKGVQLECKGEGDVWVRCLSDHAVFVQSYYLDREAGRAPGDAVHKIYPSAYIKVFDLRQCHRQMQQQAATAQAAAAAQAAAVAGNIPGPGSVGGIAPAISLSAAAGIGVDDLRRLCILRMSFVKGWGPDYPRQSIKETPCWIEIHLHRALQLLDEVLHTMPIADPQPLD
Put plainly: SAXS with ensemble optimization method. Conditions: remark: other sources report otherwise.

For assay [2], the target named is T1, full-length Smad4 protein (Smad4FL), …. The experiment in a line: native MS. Conditions: remark: other sources report otherwise.

No constants are given. Whether binding was seen depends on the method and setting.

B1: full-length Smad4 protein (Smad4FL), Q13485 1-552 (protein)
chain: MDNMSITNTPTSNDACLSIVHSLMCHRQGGESETFAKRAIESLVKKLKEKKDELDSLITAITTNGAHPSKCVTIQRTLDGRLQVAGRKGFPHVIYARLWRWPDLHKNELKHVKYCQYAFDLKCDSVCVNPYHYERVVSPGIDLSGLTLQSNAPSSMMVKDEYVHDFEGQPSLSTEGHSIQTIQHPPSNRASTETYSTPALLAPSESNATSTANFPNIPVASTSQPASILGGSHSEGLLQIASGPQPGQQQNGFTGQPATYHHNSTTTWTGSRTAPYTPNLPHHQNGHLQHHPPMPPHPGHYWPVHNELAFQPPISNHPAPEYWCSIAYFEMDVQVGETFKVPSSCPIVTVDGYVDPSGGDRFCLGQLSNVHRTEAIERARLHIGKGVQLECKGEGDVWVRCLSDHAVFVQSYYLDREAGRAPGDAVHKIYPSAYIKVFDLRQCHRQMQQQAATAQAAAAAQAAAVAGNIPGPGSVGGIAPAISLSAAAGIGVDDLRRLCILRMSFVKGWGPDYPRQSIKETPCWIEIHLHRALQLLDEVLHTMPIADPQPLD
B1: the binding entry in assay [1] and in assay [2] was “no binding” each time.
